Publication PMC3510508, “Rbg1–Tma46 dimer structure reveals new functional domains and their role in polysome recruitment” (Nucleic Acids Research, 2012)
Results are given in words; binding and its absence hold for the method and conditions named. In cells and extracts the contact can be indirect. Binding can be weak; no strength is given. Tags and fused reporters may be left off the sequences shown.

What was measured:
[1] = molecular target: T1, TAP-tagged Tma46 (yeast) (UniProt Q12000); assay: co-IP; extracts of Δrbg1 yeast expressing Tma46–TAP and HA-tagged Rbg1 variants; Tma46–TAP precipitated on IgG beads, 4°C 2 h, 150 mM NaCl; western blot of HA
T1 sequence: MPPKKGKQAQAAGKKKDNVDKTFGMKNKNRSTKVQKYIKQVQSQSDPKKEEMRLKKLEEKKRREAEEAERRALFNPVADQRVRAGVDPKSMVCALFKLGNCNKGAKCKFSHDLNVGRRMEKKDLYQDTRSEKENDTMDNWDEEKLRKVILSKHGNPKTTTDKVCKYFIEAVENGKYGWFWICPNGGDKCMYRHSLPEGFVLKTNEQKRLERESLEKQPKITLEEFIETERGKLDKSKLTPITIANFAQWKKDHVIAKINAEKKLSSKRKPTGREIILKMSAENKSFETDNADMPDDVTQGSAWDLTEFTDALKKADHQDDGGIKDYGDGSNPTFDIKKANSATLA

[2] = molecular target: T2, TAP-tagged Rbg1 (yeast) (UniProt P39729); assay: co-IP; extracts of Δtma46 yeast with TAP-tagged Rbg1 and HA-Tma46 variants on a centromeric plasmid; Rbg1-TAP precipitated on IgG beads, 4°C 2 h, 150 mM NaCl; western blot of HA
T2 sequence: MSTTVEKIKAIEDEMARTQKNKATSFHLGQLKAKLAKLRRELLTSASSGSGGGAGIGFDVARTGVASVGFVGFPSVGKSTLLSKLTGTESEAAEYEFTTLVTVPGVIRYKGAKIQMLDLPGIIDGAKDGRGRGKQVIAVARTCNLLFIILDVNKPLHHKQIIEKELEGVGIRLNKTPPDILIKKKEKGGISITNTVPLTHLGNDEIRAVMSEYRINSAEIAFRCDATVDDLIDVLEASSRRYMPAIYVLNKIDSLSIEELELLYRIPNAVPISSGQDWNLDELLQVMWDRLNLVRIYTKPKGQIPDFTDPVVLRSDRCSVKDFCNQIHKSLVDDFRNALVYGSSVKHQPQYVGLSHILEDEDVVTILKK

| binding [1] | binding [2] | Substance |
| --- | --- | --- |
| no binding |  | HA-tagged Rbg1 lacking the TGS domain (yeast) (domain or fragment) |
|  | binds weakly | HA-tagged Tma46 lacking helix α1 (from UniProt Q12000) |
| binds |  | HA-tagged Rbg1 lacking the HTH domain (yeast) (domain or fragment) |
| binds |  | HA-tagged Rbg1 lacking the S5D2L domain (from UniProt P39729) (enzyme) |
